Assay [1] has as its target human VEGF165 (Gly34-Asp135) (human) (UniProt P15692). Kind of assay: NMR 15N-HSQC titration of labelled Sam (Sam0.2 by the methods) with unlabelled VEGF.
Assay [2] has the same target. Kind of assay: NMR 15N-HSQC titration, legend of Fig. 14.

The chains behind the UniProt entries cited, without tags or fusion partners. Residues count along the entry.
UniProt P15692, residues 214-315: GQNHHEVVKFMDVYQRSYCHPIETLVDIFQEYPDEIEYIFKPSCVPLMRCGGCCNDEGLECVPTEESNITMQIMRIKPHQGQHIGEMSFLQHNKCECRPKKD

These are yes or no findings as the source states them, for the method shown. Some entries that bind do so weakly or less than the wild type.

B1: Sam0.2 (designed binder, not shown: small tags and cut ends)
chain: LPTAEEVQKLMARYIELMDVGDIEAIVQMYADDATVEAPFGAPPIHGRERIAYFYRRMLGEGIARATLTGPVRASHNGTGAMPFRVEYVFNGQPYAMDVRVEMRFDEHGRIQTMQAYWSEVNDSVREP
On to B1, for which the binding result in assay [1] and in assay [2] was “binds” in each case.
